Reference: publication PMC4829432, “T-box3 is a ciliary protein and regulates stability of the Gli3 transcription factor to control digit number” (eLife, 2016)
Results are given in words; binding and its absence hold for the method and conditions named. Binding seen in cells or lysates may run through a third protein. Some entries that bind do so weakly or less than the wild type. For some of these results: Tags and fused reporters may be left off the sequences shown.

The chains behind the UniProt entries cited, without tags or fusion partners.
UniProt Q61602: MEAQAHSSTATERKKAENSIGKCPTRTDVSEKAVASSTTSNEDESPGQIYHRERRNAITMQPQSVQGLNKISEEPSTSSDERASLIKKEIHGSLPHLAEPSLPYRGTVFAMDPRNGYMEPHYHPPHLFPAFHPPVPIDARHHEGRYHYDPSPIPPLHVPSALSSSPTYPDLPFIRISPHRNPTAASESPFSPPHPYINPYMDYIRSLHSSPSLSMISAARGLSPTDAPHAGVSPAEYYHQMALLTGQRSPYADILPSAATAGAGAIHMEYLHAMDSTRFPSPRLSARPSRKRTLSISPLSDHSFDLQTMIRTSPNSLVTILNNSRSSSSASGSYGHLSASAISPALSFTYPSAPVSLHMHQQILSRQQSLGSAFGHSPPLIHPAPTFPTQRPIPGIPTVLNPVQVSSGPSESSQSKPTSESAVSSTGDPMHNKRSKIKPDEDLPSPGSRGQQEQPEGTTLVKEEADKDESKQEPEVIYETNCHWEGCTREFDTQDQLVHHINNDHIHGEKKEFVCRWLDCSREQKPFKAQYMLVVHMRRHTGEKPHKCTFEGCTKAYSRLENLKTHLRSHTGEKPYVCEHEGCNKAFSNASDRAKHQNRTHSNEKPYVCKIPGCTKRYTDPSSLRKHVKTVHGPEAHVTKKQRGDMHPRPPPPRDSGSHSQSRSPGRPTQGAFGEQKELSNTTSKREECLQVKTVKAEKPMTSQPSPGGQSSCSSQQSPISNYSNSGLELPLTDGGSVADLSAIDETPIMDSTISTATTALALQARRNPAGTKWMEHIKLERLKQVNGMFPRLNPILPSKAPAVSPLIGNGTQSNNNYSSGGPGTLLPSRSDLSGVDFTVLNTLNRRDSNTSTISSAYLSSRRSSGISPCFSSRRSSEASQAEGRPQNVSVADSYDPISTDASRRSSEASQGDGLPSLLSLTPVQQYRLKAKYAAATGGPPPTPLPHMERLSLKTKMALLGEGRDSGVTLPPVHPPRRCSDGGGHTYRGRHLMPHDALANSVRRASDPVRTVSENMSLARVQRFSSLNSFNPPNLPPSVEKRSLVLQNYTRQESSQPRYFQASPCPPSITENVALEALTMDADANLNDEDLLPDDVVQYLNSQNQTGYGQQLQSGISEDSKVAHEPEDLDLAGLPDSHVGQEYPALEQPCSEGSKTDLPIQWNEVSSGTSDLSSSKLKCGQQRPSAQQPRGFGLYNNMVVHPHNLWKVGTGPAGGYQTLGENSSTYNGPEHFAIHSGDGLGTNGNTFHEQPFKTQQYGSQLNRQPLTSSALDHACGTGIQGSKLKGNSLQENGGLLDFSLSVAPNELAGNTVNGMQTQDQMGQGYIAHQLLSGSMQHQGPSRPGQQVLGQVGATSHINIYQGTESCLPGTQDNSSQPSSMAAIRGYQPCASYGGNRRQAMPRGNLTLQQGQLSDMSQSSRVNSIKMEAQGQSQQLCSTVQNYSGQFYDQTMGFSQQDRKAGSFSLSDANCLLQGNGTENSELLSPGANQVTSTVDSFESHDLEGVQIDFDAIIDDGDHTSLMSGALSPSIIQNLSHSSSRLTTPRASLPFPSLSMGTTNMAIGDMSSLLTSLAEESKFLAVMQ
UniProt Q6ZWS8: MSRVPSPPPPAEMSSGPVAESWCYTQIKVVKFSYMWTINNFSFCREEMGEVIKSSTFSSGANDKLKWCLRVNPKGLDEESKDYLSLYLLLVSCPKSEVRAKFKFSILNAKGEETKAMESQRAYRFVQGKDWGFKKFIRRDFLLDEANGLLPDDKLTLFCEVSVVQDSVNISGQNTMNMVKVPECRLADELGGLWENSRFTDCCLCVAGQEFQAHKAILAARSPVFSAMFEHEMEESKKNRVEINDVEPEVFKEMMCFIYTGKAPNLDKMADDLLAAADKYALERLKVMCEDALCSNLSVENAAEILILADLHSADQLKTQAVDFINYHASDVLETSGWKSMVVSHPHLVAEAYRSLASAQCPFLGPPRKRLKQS

B1: Suppressor of fused (Sufu), endogenous mouse protein (protein, UniProt Q9Z0P7 1-484)
chain: MAELRPSVAPGPAAPPASGPSAPPAFASLFPPGLHAIYGECRRLYPDQPNPLQVTAIVKYWLGGPDPLDYVSMYRNMGSPSANIPEHWHYISFGLSDLYGDNRVHEFTGTDGPSGFGFELTFRLKRETGESAPPTWPAELMQGLARYVFQSENTFCSGDHVSWHSPLDNSESRIQHMLLTEDPQMQPVRTPFGVVTFLQIVGVCTEELHSAQQWNGQGILELLRTVPIAGGPWLITDMRRGETIFEIDPHLQERVDKGIETDGSNLSGVSAKCAWDDLSRPPEDEEDSRSICLGTQPRRLSGKDTEQIRETLRRGLEINSKPVLPPINSQRQNGLTHDRAPSRKDSLGSDSSTAIIPHELIRTRQLESVHLKFNQESGALIPLCLRGRLLHGRHFTYKSITGDMAITFVSTGVEGAFATEEHPYAAHGPWLQILLTEEFVEKMLEDLEDLTSPEEFKLPKEYSWPEKKLKVSILPDVVFDSPLH
B2: T-box3 (Tbx3), endogenous mouse protein (protein, UniProt P70324 1-741)
chain: MSLSMRDPVIPGTSMAYHPFLPHRAPDFAMSAVLGHQPPFFPALTLPPNGAAALSLPGALAKPIMDQLVGAAETGIPFSSLGPQAHLRPLKTMEPEEDVEDDPKVHLEAKELWDQFHKRGTEMVITKSGRRMFPPFKVRCSGLDKKAKYILLMDIIAADDCRYKFHNSRWMVAGKADPEMPKRMYIHPDSPATGEQWMSKVVTFHKLKLTNNISDKHGFTLAFPSDHATWQGNYSFGTQTILNSMHKYQPRFHIVRANDILKLPYSTFRTYLFPETEFIAVTAYQNDKITQLKIDNNPFAKGFRDTGNGRREKRKQLTLQSMRVFEERHKKETSDESSSEQAAFNCFAQASSPAVSIVGTSNLKDLCPSEAESDAEAESKEEHGPEACDAAKISTTTAEEPGRDKGSPATRAQLFPAEPSRARDTARLDKASPDSRHSPATISSSTRVPGADERRSPGREGPVATKVDEARAIPAKDAFAPLSVQTDATAHLAQGPLPGLGFAPGLAGQQFFNGHPLFLHPGQFAMGGAFSSMAAGMGPLLATVSGASTGVSGLESTAMASAAAAQGLSGASAATLPFHLQQHVLASQGLAMSPFGSLFPYPYTYMAAAAAASTAAASSSVHRHPFLNLNSMRPRLRYSPYSIPVPVPDSSSLLATALPSMASAAGPLDGKAAALAASPASVAVDSGSELNSRSSTLSSGSVSLSPKLCSEKEAATSELQSIQRLVSGLEAKPDRSCSGSP

Legend:
[1] = target: T1, T-box3 (Tbx3), endogenous mouse protein (mouse (endogenous in E10.5 embryos)) (UniProt P70324); test: co-IP; endogenous proteins; E10.5 whole mouse embryo lysates in Dignam buffer C, control (wt) embryos; Sufu-Gli3, Sufu-Kif7 and Tbx3-Spop also assayed in Tbx3 null (Tbx3 delta-fl/delta-fl, ko) embryos, where less Sufu-Gli3 and Sufu-Kif7 co-precipitated; 5-10 ug antibody overnight at 4 C, Protein-G Dynal beads, immunoblot, densitometry
T1 sequence: B2 chain

[2] = target: T2, Kif7, endogenous mouse protein (mouse (endogenous in E10.5 embryos)) (UniProt B7ZNG0); test: as above
T2 sequence: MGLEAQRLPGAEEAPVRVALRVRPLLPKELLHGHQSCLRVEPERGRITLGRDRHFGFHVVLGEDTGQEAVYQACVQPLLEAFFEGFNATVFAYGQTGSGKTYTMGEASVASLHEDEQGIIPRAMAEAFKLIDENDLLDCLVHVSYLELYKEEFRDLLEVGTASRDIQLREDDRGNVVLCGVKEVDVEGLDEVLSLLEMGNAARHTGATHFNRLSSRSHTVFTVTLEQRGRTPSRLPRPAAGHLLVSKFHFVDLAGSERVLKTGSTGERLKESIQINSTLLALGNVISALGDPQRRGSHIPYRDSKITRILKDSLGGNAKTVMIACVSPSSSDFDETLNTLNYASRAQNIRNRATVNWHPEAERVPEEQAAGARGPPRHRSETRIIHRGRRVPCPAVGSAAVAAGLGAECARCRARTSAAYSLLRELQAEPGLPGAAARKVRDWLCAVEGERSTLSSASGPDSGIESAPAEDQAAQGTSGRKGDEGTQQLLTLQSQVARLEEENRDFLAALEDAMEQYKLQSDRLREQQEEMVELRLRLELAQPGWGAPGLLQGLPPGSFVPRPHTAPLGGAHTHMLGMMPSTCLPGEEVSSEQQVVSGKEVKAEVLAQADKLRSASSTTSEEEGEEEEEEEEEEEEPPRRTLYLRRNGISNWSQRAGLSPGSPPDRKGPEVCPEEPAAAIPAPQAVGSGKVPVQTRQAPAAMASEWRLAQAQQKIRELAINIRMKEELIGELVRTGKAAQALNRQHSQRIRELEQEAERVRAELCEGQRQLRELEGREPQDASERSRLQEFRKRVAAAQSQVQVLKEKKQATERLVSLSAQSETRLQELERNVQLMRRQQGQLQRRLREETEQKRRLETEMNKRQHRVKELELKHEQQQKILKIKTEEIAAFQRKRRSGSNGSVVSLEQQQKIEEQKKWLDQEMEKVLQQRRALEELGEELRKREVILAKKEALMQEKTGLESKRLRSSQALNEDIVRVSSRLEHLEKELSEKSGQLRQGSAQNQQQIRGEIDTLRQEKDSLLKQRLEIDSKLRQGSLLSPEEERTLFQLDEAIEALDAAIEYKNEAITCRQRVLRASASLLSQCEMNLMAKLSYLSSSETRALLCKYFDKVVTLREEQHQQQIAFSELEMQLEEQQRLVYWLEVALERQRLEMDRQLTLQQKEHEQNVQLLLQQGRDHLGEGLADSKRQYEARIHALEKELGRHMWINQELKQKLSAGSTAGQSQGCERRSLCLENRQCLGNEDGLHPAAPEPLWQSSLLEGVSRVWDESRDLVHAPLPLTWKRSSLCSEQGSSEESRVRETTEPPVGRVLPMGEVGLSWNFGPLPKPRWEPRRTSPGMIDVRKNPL

[3] = target: Gli3, endogenous mouse protein as precipitated by anti-Gli3 (Gli3FL and Gli3R not told apart) (mouse (endogenous in E10.5 embryos)) (UniProt Q61602); test: as above
[4] = target: T3, Suppressor of fused (Sufu), endogenous mouse protein (mouse (endogenous in E10.5 embryos)) (UniProt Q9Z0P7); test: as above
T3 sequence: B1 chain

[5] = target: T2, Kif7, endogenous mouse protein (mouse (endogenous in E10.5 embryos)); test: co-IP; endogenous proteins; E10.5 mouse forelimb bud lysates in Dignam buffer C; 5-10 ug antibody overnight at 4 C, Protein-G Dynal beads, three washes, immunoblot

Row | Molecule | binding [1] | binding [2] | binding [3] | binding [4] | binding [5]
1 | speckle-type POZ protein (Spop), endogenous mouse protein (from UniProt Q6ZWS8 1-374) | no binding |  |  |  | 
2 | B1 | no binding | binds | binds |  | 
3 | B2 |  | binds |  | no binding | binds
